This passage reports inhibition results from PubChem BioAssay AID504840 (Johns Hopkins Ion Channel Center, 2011).

The chains behind the UniProt entries cited, without tags or fusion partners. Where a name states a change or a piece, a line headed by the entry shows the natural chain unless it says otherwise.
UniProt Q9GZV3: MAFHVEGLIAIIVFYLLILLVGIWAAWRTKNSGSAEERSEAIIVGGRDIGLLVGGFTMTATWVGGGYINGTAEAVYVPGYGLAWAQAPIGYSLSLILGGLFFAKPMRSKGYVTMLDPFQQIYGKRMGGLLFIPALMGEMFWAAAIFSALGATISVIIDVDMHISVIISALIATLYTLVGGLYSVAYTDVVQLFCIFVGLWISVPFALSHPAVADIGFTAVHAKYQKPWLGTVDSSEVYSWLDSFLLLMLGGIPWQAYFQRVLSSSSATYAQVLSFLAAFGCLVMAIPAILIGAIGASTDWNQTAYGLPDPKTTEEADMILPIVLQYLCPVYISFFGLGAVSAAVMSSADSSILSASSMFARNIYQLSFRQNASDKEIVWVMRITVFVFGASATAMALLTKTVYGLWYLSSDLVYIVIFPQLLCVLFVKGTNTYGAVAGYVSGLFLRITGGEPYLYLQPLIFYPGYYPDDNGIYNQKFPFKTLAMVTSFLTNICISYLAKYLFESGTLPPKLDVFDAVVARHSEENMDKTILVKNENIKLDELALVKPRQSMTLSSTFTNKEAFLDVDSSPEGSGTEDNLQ

The structures appear in SMILES notation. The campaign covered roughly 1,500 compounds. About 890 (59%) were called active.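 The calls were made as follows: active = inhibition of the choline-evoked signal at any tested dose together with a fitted dose-response curve; inactive = no inhibition at any dose or no curve.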 The set was probably picked from earlier hits. The entries are a selection whose mix differs from that of the whole data set. Entries with a potency or affinity are not part of this list.

The target of this assay is High affinity choline transporter 1 (Homo sapiens) (UniProt Q9GZV3). Briefly: human choline transporter blockers, potency – cell-based, 5-point CRC, membrane potential dye, dose response (AID 504840).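 Also: 0% = buffer-only response and 100% = EC90 choline response.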 The settings on record: HEK293-CHT, choline-induced depolarization; at 37 µM (top of the series), CHT with LV-to-AA double alanine mutation unless noted.
Usually inhibition stands for the change of the read-out against control, counted positive when it falls. `COc1c(/C=C2/C(=O)NC(=O)N(C)C2=O)c(CCN(C)C(=O)c2ccccc2)cc2c1OCO2`: the inhibition was inactive: 34.3% [at 37 µM].
Regarding `Cc1ccc2c(c1)C1CN(C)CCC1N2C(=O)CCCN1C(=O)c2cccc3cccc(c23)C1=O` (stereo not given), the inhibition is inactive: 57.6%.
On to `Cc1cccc(N2CCc3c2nc2ccccc2c3N)c1`, for which the inhibition was inactive: 52%.
Consider `COC(=O)C1=C(c2cc3ccccc3o2)C[C@@H]2CC[C@H]1N2C(=O)N1CCCC1`, for which the inhibition was inactive: 63.4%.
For `CC(=O)O[C@@H]1/C=C/[C@](C)(O)C[C@@H](C)C/C=C/[C@H]2[C@@H]3O[C@]3(C)[C@@H](C)[C@H]3[C@H](Cc4ccccc4)NC(=O)[C@@]312`, the inhibition was inactive: -6.01%.
As to `CCOc1cc(/C=C2/C(=O)NC(=O)N(c3ccc(CC)cc3)C2=O)ccc1OC(=O)c1cccs1`, the inhibition was inactive: 56.5% [at 37 µM].
Regarding `CC[N+](CC)(CC#CCO)CC#Cc1ccccc1`, the inhibition is inactive: 67%.
Take `c1ccc2c(CN3CCCCCC3)c[nH]c2c1`: the inhibition was inactive: 71.8%.
To `O=c1cccc2n1CC1CC2CN(Cc2cccc(Cl)c2Cl)C1` (stereo not given) belongs inactive: 45.8%.
Regarding `O=C1NC(=O)C(=Cc2coc3ccc(O)cc3c2=O)C(=O)N1`, the inhibition is inactive: 38.7% [at 37 µM].
In the case of `CC(=O)O[C@@]12CO[C@@H]1C[C@@H](O)[C@@]1(C)C(=O)[C@H](O)C3=C(C)[C@@H](OC(=O)[C@H](O)[C@@H](NC(=O)c4ccccc4)c4ccccc4)C[C@@](O)([C@@H](OC(=O)c4ccccc4)C12)C3(C)C` (stereo not given in full) it was inactive: 23.9%; in that of `Cc1ccc2c(c1)C1CN(C)CCC1N2C(=O)Nc1cccc(C(F)(F)F)c1` (stereo not given), inactive: 48.9%.
Take `Cc1cc(/C=C2\C(=O)NC(=O)N(Cc3ccco3)C2=O)c(C)n1-c1ccc(C(=O)O)cc1`: the inhibition was inactive: 14% [at 37 µM].
As to `CCNC(=O)C1OC(n2cnc3c(N)ncnc32)C(O)C1O` (stereo not given), the inhibition is inactive: 63.1%.
Regarding `COc1cc(C=C2C(=O)NC(=O)NC2=O)ccc1OS(=O)(=O)c1ccccc1[N+](=O)[O-]`, the inhibition is inactive: 42% [at 37 µM].
